Laboratory results reported in PMC3511274.
These are yes or no findings as the source states them, for the method shown. In cells and extracts the contact can be indirect. Some entries that bind do so weakly or less than the wild type.

By UniProt entry, the sequences of proteins in these tests, tags left out.
UniProt Q04206: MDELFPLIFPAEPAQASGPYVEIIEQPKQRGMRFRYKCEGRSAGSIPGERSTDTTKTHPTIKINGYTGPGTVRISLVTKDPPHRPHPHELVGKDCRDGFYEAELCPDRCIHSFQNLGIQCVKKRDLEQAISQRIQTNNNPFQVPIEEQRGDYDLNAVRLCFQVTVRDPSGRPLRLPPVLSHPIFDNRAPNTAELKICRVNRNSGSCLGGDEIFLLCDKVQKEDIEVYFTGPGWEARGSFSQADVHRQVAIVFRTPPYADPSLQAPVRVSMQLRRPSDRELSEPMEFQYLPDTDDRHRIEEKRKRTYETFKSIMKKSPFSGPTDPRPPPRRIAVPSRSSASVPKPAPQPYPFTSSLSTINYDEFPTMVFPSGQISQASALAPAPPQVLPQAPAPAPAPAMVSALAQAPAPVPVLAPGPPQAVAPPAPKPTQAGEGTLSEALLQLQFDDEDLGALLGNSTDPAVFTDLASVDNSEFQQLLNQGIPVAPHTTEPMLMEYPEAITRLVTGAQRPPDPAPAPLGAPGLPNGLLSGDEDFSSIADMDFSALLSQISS
UniProt P49715: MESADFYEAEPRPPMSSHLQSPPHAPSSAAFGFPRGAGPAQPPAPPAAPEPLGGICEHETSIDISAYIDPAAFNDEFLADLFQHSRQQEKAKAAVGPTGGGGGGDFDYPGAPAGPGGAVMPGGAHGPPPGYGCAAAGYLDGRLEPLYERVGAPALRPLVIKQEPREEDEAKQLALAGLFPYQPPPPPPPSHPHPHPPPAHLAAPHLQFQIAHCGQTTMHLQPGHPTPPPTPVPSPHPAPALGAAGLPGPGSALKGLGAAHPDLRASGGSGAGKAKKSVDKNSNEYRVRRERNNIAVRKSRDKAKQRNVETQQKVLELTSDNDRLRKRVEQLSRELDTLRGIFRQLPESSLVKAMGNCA

Assays:
[1] = molecular target: nuclear factor of Kappa B/P65 (human (endogenous in primary human hepatocytes)) (UniProt Q04206); assay: co-IP; whole cell lysates of TNFα treated hepatocytes (1×10^6); lysis buffer with 0.4 M NaCl, diluted 1:1; 1 µg rabbit anti-P65 or mouse anti-CEBPα (or normal IgG) overnight, Protein G beads; washes with 0.2 M NaCl; immunoblot
[2] = molecular target: CCAAT/enhancer-binding protein alpha (human (endogenous in primary human hepatocytes)) (UniProt P49715); assay: as above

| binding [1] | binding [2] | Substance |
| --- | --- | --- |
| binds |  | CCAAT/enhancer-binding protein alpha (from UniProt P49715 1-358) |
|  | binds | nuclear factor of Kappa B/P65 (from UniProt Q04206 1-551) |
